Data reported in article PMC6940745 (International Journal of Molecular Sciences, 2019).
Some peptides are written in HELM: one residue between dots, names in brackets for other building blocks, links after the first $.

Legend:
[1] = general procedure: Fmoc solid-phase peptide synthesis; Rink amide; TBTU/DIPEA; TPTU/2,4,6-trimethylpyridine for amine coupling; conditions: whole synthesis, 2TFA; for isolated yield: scale of the general procedure approximately 2 g 2-chloro-trityl-resin
[2] = general procedure: Fmoc solid-phase peptide synthesis; 2-chlorotrityl; TBTU/DIPEA; TPTU/2,4,6-trimethylpyridine for amine coupling; conditions: whole synthesis, 2TFA; for isolated yield: scale of the general procedure approximately 2 g 2-chloro-trityl-resin

Row | Substance | isolated mass [1] | isolated yield [1] | isolated mass [2] | isolated yield [2]
1 | PEPTIDE1{[Bz].G.H.[dF].R.[dF].[am]}$$$$V2.0 | 218 mg | 22% |  | 
2 | PEPTIDE1{[Bz].G.H.[dF].R.[D-2-NaphAla].[am]}$$$$V2.0 | 351 mg | 32% |  | 
3 | PEPTIDE1{[Bz].G.H.[dF].R.[L-2-NaphAla].[am]}$$$$V2.0 | 413 mg | 39% |  | 
4 | PEPTIDE1{[Bz].G.H.[dF].[Dab].W.[am]}$$$$V2.0 | 170 mg | 14% |  | 
5 | Bz-Gly-His-D-Phe-Arg-(N-IndEt)Gly-NH2 *2TFA | 135 mg | 13% |  | 
6 | PEPTIDE1{[Bz].G.H.[dF].R.W.[am]}$$$$V2.0 | 196 mg | 19% |  | 
7 | PEPTIDE1{[Bz].G.H.[dF].R.[dW].[NPr2]}$$$$V2.0 |  |  | 131 mg | 12%
8 | PEPTIDE1{[Bz].G.H.[dF].R.W.[NPr2]}$$$$V2.0 |  |  | 196 mg | 36%
